No constants are given. Whether binding was seen depends on the method and setting. In cells and extracts the contact can be indirect. These calls come from enrichment with a bait or labelling near it, and not all partners need be listed. A no says only that the protein was not detected with the bait. Where a sequence is shown, tags or fusion partners need not be part of it.
Legend:
[1] = molecular target: T1, GFP-tagged full-length CENP-C^F26A,F29A (Drosophila melanogaster) (UniProt Q9VHP9); test: affinity purification with mass spectrometry; GFP-tagged bait expressed in D.mel-2 cells; lysate (10 mM Tris pH 7.5, 200 mM NaCl, 0.5 mM EGTA, 0.5% NP-40, 1 mM DTT, 5% glycerol, DNase I) on GFP-Trap agarose 2 h 4 °C; endogenous preys identified by MS
T1 sequence: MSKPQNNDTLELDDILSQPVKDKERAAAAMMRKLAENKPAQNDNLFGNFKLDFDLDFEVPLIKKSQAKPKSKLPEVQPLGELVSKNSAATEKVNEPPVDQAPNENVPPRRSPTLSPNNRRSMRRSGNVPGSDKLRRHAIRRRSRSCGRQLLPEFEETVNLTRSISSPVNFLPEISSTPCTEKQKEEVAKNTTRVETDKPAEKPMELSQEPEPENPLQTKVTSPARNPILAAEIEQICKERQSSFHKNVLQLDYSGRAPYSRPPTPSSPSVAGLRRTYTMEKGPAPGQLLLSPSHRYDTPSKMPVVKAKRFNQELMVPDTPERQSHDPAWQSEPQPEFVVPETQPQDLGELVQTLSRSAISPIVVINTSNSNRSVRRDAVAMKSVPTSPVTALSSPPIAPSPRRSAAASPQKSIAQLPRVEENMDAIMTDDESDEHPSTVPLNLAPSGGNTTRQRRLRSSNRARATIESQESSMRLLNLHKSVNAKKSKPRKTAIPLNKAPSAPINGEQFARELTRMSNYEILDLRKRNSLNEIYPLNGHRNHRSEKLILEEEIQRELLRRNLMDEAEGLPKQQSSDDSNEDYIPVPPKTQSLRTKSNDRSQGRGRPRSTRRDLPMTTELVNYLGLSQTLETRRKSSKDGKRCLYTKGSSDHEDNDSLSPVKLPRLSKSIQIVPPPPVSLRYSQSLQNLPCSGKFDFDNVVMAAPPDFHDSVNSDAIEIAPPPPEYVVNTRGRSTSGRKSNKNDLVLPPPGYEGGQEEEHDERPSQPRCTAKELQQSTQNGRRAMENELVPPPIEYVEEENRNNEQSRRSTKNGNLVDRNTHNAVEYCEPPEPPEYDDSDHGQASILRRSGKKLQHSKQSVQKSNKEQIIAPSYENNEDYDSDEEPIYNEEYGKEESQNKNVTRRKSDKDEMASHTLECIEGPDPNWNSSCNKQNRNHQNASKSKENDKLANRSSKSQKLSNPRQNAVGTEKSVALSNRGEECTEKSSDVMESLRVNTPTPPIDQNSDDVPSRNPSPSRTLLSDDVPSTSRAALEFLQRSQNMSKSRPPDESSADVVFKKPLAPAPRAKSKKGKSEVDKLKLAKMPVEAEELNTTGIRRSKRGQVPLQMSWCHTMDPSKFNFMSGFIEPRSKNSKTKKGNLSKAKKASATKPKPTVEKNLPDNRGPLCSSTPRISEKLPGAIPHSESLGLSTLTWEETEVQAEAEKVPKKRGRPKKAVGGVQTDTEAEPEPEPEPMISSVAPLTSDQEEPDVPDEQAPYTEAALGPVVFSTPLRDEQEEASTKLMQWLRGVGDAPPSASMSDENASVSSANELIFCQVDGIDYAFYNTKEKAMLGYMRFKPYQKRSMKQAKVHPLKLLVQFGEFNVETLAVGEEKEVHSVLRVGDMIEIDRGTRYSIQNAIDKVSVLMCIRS

[2] = molecular target: T2, GFP-tagged CENP-C^(1–94: F26A,F29A) (Drosophila melanogaster) (UniProt Q9VHP9); test: as above
T2 sequence: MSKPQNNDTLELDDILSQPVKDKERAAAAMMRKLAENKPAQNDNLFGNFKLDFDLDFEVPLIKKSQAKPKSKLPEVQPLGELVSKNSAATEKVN

Nnf1a (endogenous, D.mel-2 cells)
binding [1]: no binding | binding [2]: no binding

Reference: publication PMC4772809, “Network of protein interactions within the Drosophila inner kinetochore” (Open Biology, 2016)
